Our source for the binding values is PMC3187839.

Chains of the proteins cited; added tags and fusions are not shown. Lines headed by an entry give the natural chain unless they say otherwise; changes in a name come on top.
UniProt O95292: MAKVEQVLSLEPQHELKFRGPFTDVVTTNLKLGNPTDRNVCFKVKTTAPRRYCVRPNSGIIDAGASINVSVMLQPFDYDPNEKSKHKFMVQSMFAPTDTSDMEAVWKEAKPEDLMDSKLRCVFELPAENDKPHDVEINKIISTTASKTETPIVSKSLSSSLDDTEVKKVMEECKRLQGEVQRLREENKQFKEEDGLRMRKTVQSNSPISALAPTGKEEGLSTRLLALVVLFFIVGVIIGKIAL
UniProt P84078: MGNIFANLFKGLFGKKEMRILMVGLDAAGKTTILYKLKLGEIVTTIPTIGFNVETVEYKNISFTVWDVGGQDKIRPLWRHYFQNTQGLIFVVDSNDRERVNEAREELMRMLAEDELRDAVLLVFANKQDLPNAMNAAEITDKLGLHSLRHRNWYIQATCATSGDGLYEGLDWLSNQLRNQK
UniProt P36536: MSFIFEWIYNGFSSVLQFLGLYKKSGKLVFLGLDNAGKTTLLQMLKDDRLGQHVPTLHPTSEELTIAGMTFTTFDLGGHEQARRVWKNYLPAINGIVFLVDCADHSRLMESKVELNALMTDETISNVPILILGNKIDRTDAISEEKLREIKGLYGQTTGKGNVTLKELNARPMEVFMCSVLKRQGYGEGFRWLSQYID
UniProt P00441: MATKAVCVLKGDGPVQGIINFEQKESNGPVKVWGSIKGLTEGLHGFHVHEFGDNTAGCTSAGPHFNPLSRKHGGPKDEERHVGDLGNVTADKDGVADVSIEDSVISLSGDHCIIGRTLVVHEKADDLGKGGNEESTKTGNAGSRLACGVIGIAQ
UniProt P28066: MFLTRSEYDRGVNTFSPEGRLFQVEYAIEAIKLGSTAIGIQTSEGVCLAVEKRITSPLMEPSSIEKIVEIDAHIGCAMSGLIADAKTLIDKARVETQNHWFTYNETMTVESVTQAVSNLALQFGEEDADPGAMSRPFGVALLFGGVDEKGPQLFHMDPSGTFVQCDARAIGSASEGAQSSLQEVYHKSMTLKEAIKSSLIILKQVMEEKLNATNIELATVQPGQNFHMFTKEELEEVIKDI

What all share (experiment): co-IP; lysates of transfected COS-7 cells (IP buffer: 20 mM Tris-HCl pH 7.5, 150 mM NaCl, 5 mM EDTA, 5 mM EGTA, 2 mM ATP, 10% glycerol, 1% Triton X-100); 1 mg protein, overnight at +4°C with anti-hVAPB, anti-hVAPA, anti-myc or anti-Rpt2 and Protein A or G sepharose; Western blot for endogenous alpha 5 or alpha 1–7
(In general: Immunoblotting shows a protein as a band on a membrane.)

Test [1] addresses ALS-associated P56S mutated human VAPB (human) (UniProt O95292).
The target of another test is T1, human VAPA (human) (UniProt Q9P0L0).
T1 sequence: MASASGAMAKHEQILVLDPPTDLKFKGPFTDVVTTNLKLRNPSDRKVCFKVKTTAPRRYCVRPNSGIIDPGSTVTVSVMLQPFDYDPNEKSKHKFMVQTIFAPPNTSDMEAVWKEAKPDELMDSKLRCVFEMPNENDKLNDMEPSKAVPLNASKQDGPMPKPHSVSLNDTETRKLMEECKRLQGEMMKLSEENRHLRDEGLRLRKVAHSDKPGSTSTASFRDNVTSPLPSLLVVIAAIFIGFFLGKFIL

Test [2] deals with myc-tagged ADP-ribosylation factor 1 (Arf1, COPI coat protein) (mouse) (UniProt P84078).
The target of test [3] is myc-tagged Sar1 (COPII coat protein) (UniProt P36536).
Test [4] concerns the target myc-tagged human superoxide dismutase-1 (human) (UniProt P00441).
Test [5] deals with wildtype human VAPB (vesicle-associated membrane protein (VAMP)-associated protein B) (human) (UniProt O95292).

These are yes or no findings as the source states them, for the method shown. Binding seen in cells or lysates may run through a third protein. Some results given as binding are weak or reduced against the parent protein; the word gives no strength.

Consider “alpha 5 subunit of the proteasome (from UniProt P28066 1-241)”, for which the binding result in test [1] is “binds”; with human VAPA (human), “no binding”; in test [2], “no binding”; in test [3] it was “no binding”; in test [4], “no binding”; in test [5], “binds”.
